The target of test [1] is T7-tagged SOCS6 SOCS box mutant LCQQ (mouse) (UniProt Q9JLY0). Briefly: co-IP; anti-T7 antibody immunoprecipitates of HeLa cells transiently expressing T7-tagged wildtype or mutant SOCS6; Western blotting with antibodies to Cas, ElonginB and T7. (In general: In western blotting, separated proteins are transferred to a membrane and probed.)
The target in test [2] is T7-tagged Cul5^KR (mutated to inhibit Cullin activity) (UniProt Q9D5V5). Briefly: co-IP; HeLa cells co-transfected with mCherry constructs and pCAGT7Cul5KR; immunoprecipitation with mouse anti-T7 and protein A beads; blots with anti-T7 or anti-mCherry.

By UniProt entry, the sequences of proteins in these tests, tags left out. Where a name states a change or a piece, a line headed by the entry shows the natural chain unless it says otherwise.
UniProt Q9D5V5: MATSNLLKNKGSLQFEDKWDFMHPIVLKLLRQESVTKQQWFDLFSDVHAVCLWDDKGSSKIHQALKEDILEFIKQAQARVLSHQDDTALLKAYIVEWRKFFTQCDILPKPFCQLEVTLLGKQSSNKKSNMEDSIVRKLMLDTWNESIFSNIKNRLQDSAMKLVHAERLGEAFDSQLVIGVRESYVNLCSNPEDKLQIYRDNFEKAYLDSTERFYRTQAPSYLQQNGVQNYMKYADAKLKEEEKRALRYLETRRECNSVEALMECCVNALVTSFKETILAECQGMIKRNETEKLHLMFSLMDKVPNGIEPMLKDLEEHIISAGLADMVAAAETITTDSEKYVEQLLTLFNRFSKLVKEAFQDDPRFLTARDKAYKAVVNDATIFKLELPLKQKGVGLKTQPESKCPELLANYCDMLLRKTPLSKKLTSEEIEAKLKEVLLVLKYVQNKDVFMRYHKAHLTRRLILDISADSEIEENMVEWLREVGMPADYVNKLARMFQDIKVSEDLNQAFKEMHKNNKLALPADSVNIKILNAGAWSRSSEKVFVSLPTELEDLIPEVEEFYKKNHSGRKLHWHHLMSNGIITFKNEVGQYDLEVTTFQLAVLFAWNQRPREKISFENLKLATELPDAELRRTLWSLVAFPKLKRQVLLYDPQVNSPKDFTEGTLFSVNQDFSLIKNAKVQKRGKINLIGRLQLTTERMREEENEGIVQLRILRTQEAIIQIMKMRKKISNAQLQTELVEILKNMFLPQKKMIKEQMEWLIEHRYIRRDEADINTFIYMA
UniProt Q15370: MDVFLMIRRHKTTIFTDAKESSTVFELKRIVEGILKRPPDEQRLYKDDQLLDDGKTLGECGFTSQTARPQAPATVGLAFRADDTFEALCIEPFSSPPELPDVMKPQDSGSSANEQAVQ

The values that follow come from article PMC5092051.

Results are given in words; binding and its absence hold for the method and conditions named. In cells and extracts the contact can be indirect. Binding can be weak; no strength is given.

As to “ElonginB, endogenous (from UniProt Q15370 1-118)”, the binding entry in test [1] was “no binding”.

B1: mCherry-SOCS6 (protein, UniProt Q9JLY0 1-533)
chain: MKKISLKTFRKSFNLSKSKDETEFMVVQPQSLAGDFVKDDSLFGSCYGKDMASCDIGSEDEKGKNRSKSESLMGTLKRRLSAKQKTKGKGGTASTDEDTFSSASAPGGLKDVRAPRPIRSTSLRSHHYSPTPWPLRPTSSEETCIKMEMRVKALVHAASPGPVNGVRKDLRELQPRELRDLQPEPRPESRCSPSSPGDLSLHLEEHVPVVIGLMSQDYLQYTVPLDDGMCPLEGPRSCCLDTSSPMEVSAVPLPGASGAFSEDDSHVDQDLVVGPEILVDSSVNNLLIGTTGVMLQSPRGGHDDAPPLSPLLPPMQNNPIQRNFSGLSGPDLHMAESVRCHLNFDPNSAPGVARVYDSVQSSGPMVVTSLTEELKKLAKQGWYWGPITRWEAEGKLANVPDGSFLVRDSSDDRYLLSLSFRSHGKTLHTRIEHSNGRFSFYEQPDVEGHTSIVDLIEHSIRDSENGAFCYSRSRLPGSATYPVRLTNPVSRFMQVRSLQYLCRFVIRQYTRIDLIQKLPLPNKMKDYLQEKHY
Regarding B1, the binding entry in test [2] is listed as “binds”.

B2: Cas (Crk-associated substrate/p130Cas/BCAR1), endogenous (protein, UniProt P56945 1-870)
chain: MNHLNVLAKALYDNVAESPDELSFRKGDIMTVLEQDTQGLDGWWLCSLHGRQGIVPGNRLKILVGMYDKKPAGPGPGPPATPAQPQPGLHAPAPPASQYTPMLPNTYQPQPDSVYLVPTPSKAQQGLYQVPGPSPQFQSPPAKQTSTFSKQTPHHPFPSPATDLYQVPPGPGGPAQDIYQVPPSAGMGHDIYQVPPSMDTRSWEGTKPPAKVVVPTRVGQGYVYEAAQPEQDEYDIPRHLLAPGPQDIYDVPPVRGLLPSQYGQEVYDTPPMAVKGPNGRDPLLEVYDVPPSVEKGLPPSNHHAVYDVPPSVSKDVPDGPLLREETYDVPPAFAKAKPFDPARTPLVLAAPPPDSPPAEDVYDVPPPAPDLYDVPPGLRRPGPGTLYDVPRERVLPPEVADGGVVDSGVYAVPPPAEREAPAEGKRLSASSTGSTRSSQSASSLEVAGPGREPLELEVAVEALARLQQGVSATVAHLLDLAGSAGATGSWRSPSEPQEPLVQDLQAAVAAVQSAVHELLEFARSAVGNAAHTSDRALHAKLSRQLQKMEDVHQTLVAHGQALDAGRGGSGATLEDLDRLVACSRAVPEDAKQLASFLHGNASLLFRRTKATAPGPEGGGTLHPNPTDKTSSIQSRPLPSPPKFTSQDSPDGQYENSEGGWMEDYDYVHLQGKEEFEKTQKELLEKGSITRQGKSQLELQQLKQFERLEQEVSRPIDHDLANWTPAQPLAPGRTGGLGPSDRQLLLFYLEQCEANLTTLTNAVDAFFTAVATNQPPKIFVAHSKFVILSAHKLVFIGDTLSRQAKAADVRSQVTHYSNLLCDLLRGIVATTKAAALQYPSPSAAQDMVERVKELGHSTQQFRRVLGQLAAA
On to B2, for which the binding result in test [1] was “binds”.
